Some of the results follow.
Compound: Cc1cc(ccc1-c1ccccc1)C(=O)N1CCCN(CC1)C(=O)CCl [compound 10]
Assay: probe-labelled cysteine peptide fold change vs DMSO (competition) (log2 fold change); higher = less target engagement (more negative = stronger competition)
Details: THP-1, incubation time: 4 h
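Also: competitive profiling in live THP-1 cells: cysteine peptides tagged with an iodoacetamide desthiobiotin (IA-DTB) probe, intensity after compound treatment relative to DMSO-treated cells.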

Sequences of proteins named here, by UniProt entry; tags and fusion partners are left off. A change or cut given only in a name is not applied to a line headed by its entry.
UniProt P0DPB6, whole entry, looked up: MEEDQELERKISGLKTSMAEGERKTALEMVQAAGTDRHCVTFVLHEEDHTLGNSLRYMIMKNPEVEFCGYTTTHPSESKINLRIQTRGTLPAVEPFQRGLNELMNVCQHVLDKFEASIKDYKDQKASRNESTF
UniProt O95602, whole entry, looked up: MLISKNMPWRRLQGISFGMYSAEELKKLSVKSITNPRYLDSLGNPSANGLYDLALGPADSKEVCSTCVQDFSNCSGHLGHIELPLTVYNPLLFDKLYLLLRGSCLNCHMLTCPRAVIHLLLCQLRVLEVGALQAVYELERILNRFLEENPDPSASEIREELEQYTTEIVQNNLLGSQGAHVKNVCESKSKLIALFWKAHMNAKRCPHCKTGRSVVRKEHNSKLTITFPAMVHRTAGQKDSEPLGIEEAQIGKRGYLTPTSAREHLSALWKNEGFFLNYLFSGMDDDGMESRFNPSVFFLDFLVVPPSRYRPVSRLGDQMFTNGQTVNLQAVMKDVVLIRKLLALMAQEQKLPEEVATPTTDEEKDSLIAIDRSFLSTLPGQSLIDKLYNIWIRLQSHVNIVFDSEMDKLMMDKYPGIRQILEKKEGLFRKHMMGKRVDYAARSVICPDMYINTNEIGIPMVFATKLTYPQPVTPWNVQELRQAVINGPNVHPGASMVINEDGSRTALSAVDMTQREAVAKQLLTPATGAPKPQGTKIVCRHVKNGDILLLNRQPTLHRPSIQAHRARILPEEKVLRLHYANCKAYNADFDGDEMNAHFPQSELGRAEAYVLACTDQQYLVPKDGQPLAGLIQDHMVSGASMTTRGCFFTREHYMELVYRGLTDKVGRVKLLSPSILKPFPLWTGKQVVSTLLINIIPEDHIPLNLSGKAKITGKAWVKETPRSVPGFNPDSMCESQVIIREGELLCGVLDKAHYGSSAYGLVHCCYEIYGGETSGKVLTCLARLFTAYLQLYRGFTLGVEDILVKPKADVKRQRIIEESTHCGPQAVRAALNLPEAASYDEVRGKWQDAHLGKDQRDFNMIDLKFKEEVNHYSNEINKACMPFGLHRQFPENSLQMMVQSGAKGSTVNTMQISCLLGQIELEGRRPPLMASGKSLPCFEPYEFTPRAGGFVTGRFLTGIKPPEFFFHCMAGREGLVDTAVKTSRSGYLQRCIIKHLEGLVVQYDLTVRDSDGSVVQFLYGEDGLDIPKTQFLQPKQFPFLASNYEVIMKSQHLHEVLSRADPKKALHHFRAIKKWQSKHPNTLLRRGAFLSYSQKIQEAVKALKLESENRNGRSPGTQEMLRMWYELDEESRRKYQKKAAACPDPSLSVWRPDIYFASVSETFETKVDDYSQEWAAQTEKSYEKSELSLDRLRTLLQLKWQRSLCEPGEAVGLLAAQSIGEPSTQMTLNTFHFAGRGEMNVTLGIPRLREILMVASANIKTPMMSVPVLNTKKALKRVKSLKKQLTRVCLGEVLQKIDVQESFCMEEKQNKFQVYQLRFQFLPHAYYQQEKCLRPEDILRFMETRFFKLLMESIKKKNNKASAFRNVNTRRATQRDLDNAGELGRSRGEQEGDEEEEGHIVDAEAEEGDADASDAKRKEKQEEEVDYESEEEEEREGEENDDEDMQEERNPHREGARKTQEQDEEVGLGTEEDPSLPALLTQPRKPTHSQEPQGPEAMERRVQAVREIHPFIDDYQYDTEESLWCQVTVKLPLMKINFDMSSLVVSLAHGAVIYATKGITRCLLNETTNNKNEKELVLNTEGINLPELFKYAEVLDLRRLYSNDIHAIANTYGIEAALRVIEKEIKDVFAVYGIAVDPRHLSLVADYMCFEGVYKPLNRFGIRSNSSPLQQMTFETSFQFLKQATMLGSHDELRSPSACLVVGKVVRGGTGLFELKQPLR
UniProt O14802: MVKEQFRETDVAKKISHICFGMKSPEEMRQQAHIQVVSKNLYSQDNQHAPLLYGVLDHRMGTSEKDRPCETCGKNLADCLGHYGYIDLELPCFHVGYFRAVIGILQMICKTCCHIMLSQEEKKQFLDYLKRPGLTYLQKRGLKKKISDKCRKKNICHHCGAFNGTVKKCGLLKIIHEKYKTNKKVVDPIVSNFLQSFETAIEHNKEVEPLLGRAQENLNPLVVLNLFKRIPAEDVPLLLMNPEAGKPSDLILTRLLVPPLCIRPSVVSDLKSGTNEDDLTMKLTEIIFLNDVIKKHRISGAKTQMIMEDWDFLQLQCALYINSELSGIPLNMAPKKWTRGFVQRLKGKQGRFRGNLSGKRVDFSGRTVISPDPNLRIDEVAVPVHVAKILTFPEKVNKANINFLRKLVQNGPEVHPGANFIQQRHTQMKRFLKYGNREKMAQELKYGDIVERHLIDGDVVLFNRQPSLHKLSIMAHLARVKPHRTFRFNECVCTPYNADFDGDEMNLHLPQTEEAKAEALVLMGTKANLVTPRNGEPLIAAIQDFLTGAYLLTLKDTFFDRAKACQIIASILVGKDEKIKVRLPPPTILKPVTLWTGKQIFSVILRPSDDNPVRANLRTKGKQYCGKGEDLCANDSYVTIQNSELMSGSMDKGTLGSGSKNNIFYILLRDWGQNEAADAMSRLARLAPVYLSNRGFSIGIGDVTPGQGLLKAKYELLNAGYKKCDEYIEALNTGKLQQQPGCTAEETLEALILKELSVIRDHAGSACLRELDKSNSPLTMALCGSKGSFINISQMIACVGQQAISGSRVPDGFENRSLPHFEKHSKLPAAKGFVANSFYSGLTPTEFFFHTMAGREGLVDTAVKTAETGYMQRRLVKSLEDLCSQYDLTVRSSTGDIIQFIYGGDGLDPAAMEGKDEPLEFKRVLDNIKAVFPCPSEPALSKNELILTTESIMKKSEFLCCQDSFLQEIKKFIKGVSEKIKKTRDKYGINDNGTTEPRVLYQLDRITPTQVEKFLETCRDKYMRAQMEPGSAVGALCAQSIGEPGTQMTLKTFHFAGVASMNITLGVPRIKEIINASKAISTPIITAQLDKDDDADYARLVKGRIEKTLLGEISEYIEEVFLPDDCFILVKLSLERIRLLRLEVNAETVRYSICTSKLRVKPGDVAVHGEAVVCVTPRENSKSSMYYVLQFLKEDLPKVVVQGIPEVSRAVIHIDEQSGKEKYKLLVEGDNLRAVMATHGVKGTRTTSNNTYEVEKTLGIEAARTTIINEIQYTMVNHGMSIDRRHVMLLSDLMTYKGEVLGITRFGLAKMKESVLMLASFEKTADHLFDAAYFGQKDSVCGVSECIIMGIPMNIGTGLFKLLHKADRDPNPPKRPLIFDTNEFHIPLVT
UniProt Q96HA1, whole entry: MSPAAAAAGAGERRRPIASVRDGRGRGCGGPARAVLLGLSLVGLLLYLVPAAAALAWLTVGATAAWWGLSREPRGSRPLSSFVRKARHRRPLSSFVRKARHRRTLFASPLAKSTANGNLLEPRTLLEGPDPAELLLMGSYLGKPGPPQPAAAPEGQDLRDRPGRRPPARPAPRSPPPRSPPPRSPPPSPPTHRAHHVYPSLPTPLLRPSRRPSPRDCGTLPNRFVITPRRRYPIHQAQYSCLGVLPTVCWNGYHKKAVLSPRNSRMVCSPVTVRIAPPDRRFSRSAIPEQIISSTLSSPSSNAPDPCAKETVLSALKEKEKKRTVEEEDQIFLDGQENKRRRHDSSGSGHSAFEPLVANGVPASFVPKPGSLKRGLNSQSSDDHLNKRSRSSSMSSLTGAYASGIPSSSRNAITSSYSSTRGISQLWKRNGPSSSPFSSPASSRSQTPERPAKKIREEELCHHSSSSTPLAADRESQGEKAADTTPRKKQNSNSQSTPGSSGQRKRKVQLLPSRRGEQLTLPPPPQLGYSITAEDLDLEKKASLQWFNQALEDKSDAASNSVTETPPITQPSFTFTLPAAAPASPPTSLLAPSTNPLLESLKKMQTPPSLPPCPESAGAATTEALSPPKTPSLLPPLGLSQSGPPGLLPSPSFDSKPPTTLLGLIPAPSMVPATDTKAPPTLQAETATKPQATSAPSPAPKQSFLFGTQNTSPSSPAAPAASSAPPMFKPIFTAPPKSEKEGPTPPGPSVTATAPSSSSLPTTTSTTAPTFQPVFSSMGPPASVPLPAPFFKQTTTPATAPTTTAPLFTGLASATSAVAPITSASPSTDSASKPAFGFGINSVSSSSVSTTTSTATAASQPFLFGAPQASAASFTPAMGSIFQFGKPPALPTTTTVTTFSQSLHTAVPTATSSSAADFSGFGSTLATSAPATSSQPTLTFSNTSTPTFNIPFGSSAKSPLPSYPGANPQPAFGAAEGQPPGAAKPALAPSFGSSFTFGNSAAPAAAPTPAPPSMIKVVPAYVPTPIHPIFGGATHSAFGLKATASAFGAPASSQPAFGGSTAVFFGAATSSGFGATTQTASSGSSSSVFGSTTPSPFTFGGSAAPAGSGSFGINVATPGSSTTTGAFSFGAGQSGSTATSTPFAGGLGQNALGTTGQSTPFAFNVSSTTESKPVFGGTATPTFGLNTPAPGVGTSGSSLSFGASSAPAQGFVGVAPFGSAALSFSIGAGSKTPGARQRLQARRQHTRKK
UniProt Q99575: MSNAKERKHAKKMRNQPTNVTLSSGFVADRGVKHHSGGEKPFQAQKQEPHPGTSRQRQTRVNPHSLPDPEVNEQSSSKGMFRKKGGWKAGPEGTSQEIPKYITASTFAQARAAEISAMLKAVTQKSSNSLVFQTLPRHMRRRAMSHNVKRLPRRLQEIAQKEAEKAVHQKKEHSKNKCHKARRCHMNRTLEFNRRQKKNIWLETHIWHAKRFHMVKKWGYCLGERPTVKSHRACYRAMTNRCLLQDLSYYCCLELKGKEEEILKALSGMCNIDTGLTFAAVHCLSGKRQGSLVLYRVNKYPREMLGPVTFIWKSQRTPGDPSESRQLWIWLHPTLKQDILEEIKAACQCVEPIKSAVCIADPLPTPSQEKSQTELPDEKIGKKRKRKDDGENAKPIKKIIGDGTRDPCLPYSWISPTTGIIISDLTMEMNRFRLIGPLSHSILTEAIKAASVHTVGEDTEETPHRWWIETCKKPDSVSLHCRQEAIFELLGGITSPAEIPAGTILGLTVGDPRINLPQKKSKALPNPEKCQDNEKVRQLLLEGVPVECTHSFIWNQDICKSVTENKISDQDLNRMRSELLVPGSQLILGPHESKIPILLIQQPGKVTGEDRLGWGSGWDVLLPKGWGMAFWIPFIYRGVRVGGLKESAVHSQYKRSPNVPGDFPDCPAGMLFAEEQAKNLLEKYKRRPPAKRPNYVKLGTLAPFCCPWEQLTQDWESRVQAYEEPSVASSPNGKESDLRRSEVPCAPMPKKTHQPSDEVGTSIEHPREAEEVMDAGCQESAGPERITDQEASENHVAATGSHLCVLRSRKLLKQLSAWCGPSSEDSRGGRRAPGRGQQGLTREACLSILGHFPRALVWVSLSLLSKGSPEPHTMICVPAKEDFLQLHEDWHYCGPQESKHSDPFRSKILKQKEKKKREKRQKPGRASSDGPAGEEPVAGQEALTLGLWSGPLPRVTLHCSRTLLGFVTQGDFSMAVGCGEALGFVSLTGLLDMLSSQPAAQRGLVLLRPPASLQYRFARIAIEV
UniProt A5A3E0, whole entry, looked up: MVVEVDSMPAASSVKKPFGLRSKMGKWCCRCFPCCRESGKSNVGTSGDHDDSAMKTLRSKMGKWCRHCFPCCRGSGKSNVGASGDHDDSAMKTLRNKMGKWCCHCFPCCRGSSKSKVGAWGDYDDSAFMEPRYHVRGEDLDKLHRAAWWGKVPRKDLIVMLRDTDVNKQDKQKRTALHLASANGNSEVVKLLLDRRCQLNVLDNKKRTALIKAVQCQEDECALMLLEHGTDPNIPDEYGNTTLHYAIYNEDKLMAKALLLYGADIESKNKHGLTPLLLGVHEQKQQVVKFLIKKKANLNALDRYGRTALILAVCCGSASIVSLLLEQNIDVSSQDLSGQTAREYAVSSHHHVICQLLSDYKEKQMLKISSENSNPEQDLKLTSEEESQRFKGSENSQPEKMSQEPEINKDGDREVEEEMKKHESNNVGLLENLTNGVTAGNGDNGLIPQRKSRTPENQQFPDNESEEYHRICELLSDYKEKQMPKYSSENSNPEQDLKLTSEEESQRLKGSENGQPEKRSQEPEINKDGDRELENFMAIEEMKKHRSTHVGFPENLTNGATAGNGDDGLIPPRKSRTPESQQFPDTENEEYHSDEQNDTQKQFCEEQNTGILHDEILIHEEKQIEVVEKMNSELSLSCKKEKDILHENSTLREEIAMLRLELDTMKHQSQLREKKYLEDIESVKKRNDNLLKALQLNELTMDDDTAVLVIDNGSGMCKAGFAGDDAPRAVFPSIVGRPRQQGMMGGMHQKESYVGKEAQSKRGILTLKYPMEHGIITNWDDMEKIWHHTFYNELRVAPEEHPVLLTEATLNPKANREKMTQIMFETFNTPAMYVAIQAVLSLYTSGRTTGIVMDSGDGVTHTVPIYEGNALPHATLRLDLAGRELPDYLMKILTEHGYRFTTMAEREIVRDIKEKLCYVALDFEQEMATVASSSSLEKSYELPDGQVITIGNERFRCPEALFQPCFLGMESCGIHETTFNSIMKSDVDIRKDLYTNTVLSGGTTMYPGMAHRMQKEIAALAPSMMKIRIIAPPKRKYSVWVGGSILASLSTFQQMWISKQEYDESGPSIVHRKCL

Target | probe-labelled cysteine peptide fold change (10 µM) | probe-labelled cysteine peptide fold change (50 µM)
POLD3_Q15054_137_FSAIQCAAAVPR (UniProt Q15054) | -0.187 | 0.016
POLR2A_P24928_641_VVVENGELIMGILCK (UniProt P24928) | 0.076 | -0.0713
POLR1D_P0DPB6_107_GLNELMNVCQHVLDK (UniProt P0DPB6) | 0.125 | 0.15
POLR1A_O95602_582_LHYANCK (UniProt O95602) | 0.0596 | 0.0131
POLR3A_O14802_1174_VKPGDVAVHGEAVVCVTPR (UniProt O14802) | 0.148 | 0.185
POLR3E_Q9NVU0_616_MLQDTVLAAGCK (UniProt Q9NVU0) | 0.0878 | 0.0125
POLR2I_P36954_42+52_NCDYQQEADNSCIYVNK (UniProt P36954) | -0.000456 | -0.38
POM121_Q96HA1_217_DCGTLPNR (UniProt Q96HA1) | -0.11 | -0.441
POP1_Q99575_283_ALSGMCNIDTGLTFAAVHCLSGKR (UniProt Q99575) | -0.041 | -0.111
POFUT2_Q9Y2G5_375_DGGVAIIDQWICAHAR (UniProt Q9Y2G5) | -0.205 | -0.0306
POTEF_A5A3E0_917_LCYVALDFEQEMATVASSSSLEK (UniProt A5A3E0) | 0.126 | -0.0637
POLK_Q9UBT6_545_SIIGFLQAGNQALSATECTLEK (UniProt Q9UBT6) | -0.695 | -0.377
POLR1B_Q9H9Y6_214_GPGYTQYGVSMHCVR (UniProt Q9H9Y6) | 0.157 | 0.246
POGZ_Q7Z3K3_1219_HTACQR (UniProt Q7Z3K3) | -0.0145 | -0.198

Full records as entered above. Order of values: probe-labelled cysteine peptide fold change (10 µM)	probe-labelled cysteine peptide fold change (50 µM)
POLR2I_P36954_42+52_NCDYQQEADNSCIYVNK (UniProt P36954) as listed: -0.000456	-0.38
POTEF_A5A3E0_917_LCYVALDFEQEMATVASSSSLEK (UniProt A5A3E0) as listed: 0.126	-0.0637
